Data reported in US20190136321A1, “USE OF TRANSLATIONAL PROFILING TO IDENTIFY TARGET MOLECULES FOR THERAPEUTIC TREATMENT” (The Regents of The University of California, priority 2013, published 2019).

What was measured:
Type in all cases: cell-based, human
SW620 cells [1] = test: Western blot of phosphorylation of protein translation components in SW620 cells; settings: 2.5 μM PP242
Method: (§1) SW620 cells (ATCC, passage 12) were seeded at about 75% confluence 24 hrs prior to drug treatment. […] About 6×10^6 cells/10 cm plate and about 1×10^6 cells/well of a 6-well plate were harvested for ribosome profiling and Western blot analysis, respectively, following drug treatment.
Cells were washed with PBS and lysed in 1× cell lysis buffer (Cell Signaling) for 15 min at 4° C. Lysates were sonicated briefly, clarified by centrifugation for 15 min at 14, 000 rpm, and supernatants were then collected. Protein concentration in the soluble fraction was determined by BCA protein assay (Thermo Scientific). A 4-20% Bis-Tris gradient gel (Invitrogen) was used to resolve 20 μg of protein and transferred to nitrocellulose membrane. The resulting membranes were blocked for 1 hr at room temperature with Odyssey blocking solution (LI-COR) and then incubated with primary antibodies at 4° C. overnight. The following day, the blots were washed 3 times, 10 min each in TBST, and incubated with IR-conjugated goat anti-rabbit IgG secondary antibody (IRDye 800 CW at 1:20,000; LI-COR) for 1 hour at room temperature. The blots were then washed, scanned, and specific proteins were detected using the LI-COR Odyssey infrared imager. […]

4EBP1, p70S6K1/2 and AKT = test: Western blot of downstream mTOR effectors in PC3 cells; settings: 3 hours, rapamycin 50 nM, PP242 2.5 μM
SW620 cells [2] = test: Ribosome profiling of SW620 cells (transcription, translational rate, translational efficiency); settings: 2.5 μM PP242, 3 hrs
Method: SW620 human colon cancer cells were cultured in DMEM media supplemented with penicillin G (100 U/ml), streptomycin (100 μg/ml), and 10% FBS in a humidified atmosphere of 5% CO2 maintained at 37° C.
as §1

CC(C)n1nc(-c2cc3cc(O)ccc3[nH]2)c2c(N)ncnc21 [PP242]
inhibition of phosphorylation (SW620 cells [1]): significant inhibition
activity of the three primary downstream mTOR effectors 4EBP1, p70S6K1/2 and AKT (4EBP1, p70S6K1/2 and AKT): significantly inhibited
translational efficiency of genes sensitive to 2.5 μM PP242 in PC3 cells (SW620 cells [2]): also sensitive
